Data from paper PMC11806007.
Results are given in words; binding and its absence hold for the method and conditions named. Binding seen in cells or lysates may run through a third protein. Some results given as binding are weak or reduced against the parent protein; the word gives no strength. Where a sequence is shown, tags or fusion partners need not be part of it.

Protein sequences, listed by entry. Tags and fused reporters are not part of them.
UniProt Q00987: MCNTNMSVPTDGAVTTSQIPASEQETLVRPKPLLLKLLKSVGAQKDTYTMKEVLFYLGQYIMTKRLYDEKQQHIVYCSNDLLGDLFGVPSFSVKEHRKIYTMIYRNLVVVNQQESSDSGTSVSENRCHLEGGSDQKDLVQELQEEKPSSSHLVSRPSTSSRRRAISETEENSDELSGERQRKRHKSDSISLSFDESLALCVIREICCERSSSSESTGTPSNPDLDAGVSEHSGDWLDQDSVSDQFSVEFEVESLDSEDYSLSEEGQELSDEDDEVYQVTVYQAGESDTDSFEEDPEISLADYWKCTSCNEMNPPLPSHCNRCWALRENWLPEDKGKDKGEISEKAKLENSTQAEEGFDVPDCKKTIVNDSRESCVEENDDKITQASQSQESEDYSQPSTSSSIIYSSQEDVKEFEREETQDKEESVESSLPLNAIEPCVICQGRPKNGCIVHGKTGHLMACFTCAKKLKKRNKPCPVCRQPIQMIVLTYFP

How the values were obtained:
[1] = target: T1, spastin-DDK-MYC (human) (UniProt Q9UBP0); assay: proximity ligation; in situ PLA (Duolink) on fixed cells; mouse anti-MDM2 (SMP14) and rabbit anti-FLAG; amplification 120 min
T1 sequence: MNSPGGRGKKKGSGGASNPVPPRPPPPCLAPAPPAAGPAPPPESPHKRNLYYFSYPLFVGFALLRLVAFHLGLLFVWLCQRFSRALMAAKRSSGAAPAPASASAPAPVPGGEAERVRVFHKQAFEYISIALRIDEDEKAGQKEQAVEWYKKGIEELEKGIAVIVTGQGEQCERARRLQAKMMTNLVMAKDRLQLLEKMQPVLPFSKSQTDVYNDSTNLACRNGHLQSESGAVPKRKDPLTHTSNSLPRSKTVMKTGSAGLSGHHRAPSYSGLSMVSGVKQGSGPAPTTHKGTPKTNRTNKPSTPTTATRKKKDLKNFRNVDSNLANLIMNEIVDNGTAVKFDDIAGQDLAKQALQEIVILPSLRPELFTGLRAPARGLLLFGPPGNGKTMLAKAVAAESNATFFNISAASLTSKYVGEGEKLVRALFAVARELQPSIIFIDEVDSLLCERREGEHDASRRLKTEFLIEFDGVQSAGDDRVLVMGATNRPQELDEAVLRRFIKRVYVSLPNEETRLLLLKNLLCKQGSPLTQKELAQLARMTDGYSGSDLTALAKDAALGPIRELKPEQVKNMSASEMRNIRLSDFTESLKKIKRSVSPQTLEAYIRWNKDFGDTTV

[2] = target: T1, spastin-DDK-MYC (human); assay: co-IP; total cell extracts of HeLa cells transfected with pCMV6-spastin-DDK-MYC or pCMV6-DDK-MYC, lysed 24 h post transfection, immunoprecipitated with anti-DDK Ab, WB for MDM2

binding [1]: binds
binding [2]: binds
Substance: MDM2 (endogenous) (from UniProt Q00987 1-491)
